Laboratory results: PubChem BioAssay AID720587 (Broad Institute, 2013)
The entries are a selection whose mix differs from that of the whole data set. Active and inactive are the calls of the source.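 The calls were made as follows: active = fitted curve reaches -35% activity change at a concentration below twice the top valid dose tested; inactive = the rest, including effects opposite to the expected direction.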

Assay: EWS/Fli1-dependent A673 cell killing, confirmation, CellTiter-Glo luminescence, cherry-pick retest (AID 720587)
Conditions: A673 Ewing sarcoma viability, CellTiter-Glo ATP luminescence, 72 h; at 26 µM (top of the series)

Q: For O=S(=O)(c1ccc2nc(SCc3cccc(Cl)c3)[nH]c2c1)N1CCOCC1, which activity change, negative = cytotoxicity is on record?
A: Its activity change, negative = cytotoxicity is inactive: -3.63%.
